Our source for the binding values is publication doi:10.1101/2022.09.13.507776.

In assay [1] the target is hemagglutinin (HA)-tagged SRGAP2C (human) (UniProt P0DJJ0). The assay can be described thus: co-IP.
In assay [2] the target is hemagglutinin (HA)-tagged SRGAP2A (human) (UniProt O75044). The assay can be described thus: co-IP.

No constants are given. Whether binding was seen depends on the method and setting. Binding seen in cells or lysates may run through a third protein. Some entries that bind do so weakly or less than the wild type. Tags and fused reporters may be left off the sequences shown.

B1: CTNND2-GFP (protein, UniProt Q9UQB3 1-1225)
chain: MFARKPPGAAPLGAMPVPDQPSSASEKTSSLSPGLNTSNGDGSETETTSAILASVKEQELQFERLTRELEAERQIVASQLERCKLGSETGSMSSMSSAEEQFQWQSQDGQKDIEDELTTGLELVDSCIRSLQESGILDPQDYSTGERPSLLSQSALQLNSKPEGSFQYPASYHSNQTLALGETTPSQLPARGTQARATGQSFSQGTTSRAGHLAGPEPAPPPPPPPREPFAPSLGSAFHLPDAPPAAAAAALYYSSSTLPAPPRGGSPLAAPQGGSPTKLQRGGSAPEGATYAAPRGSSPKQSPSRLAKSYSTSSPINIVVSSAGLSPIRVTSPPTVQSTISSSPIHQLSSTIGTYATLSPTKRLVHASEQYSKHSQELYATATLQRPGSLAAGSRASYSSQHGHLGPELRALQSPEHHIDPIYEDRVYQKPPMRSLSQSQGDPLPPAHTGTYRTSTAPSSPGVDSVPLQRTGSQHGPQNAAAATFQRASYAAGPASNYADPYRQLQYCPSVESPYSKSGPALPPEGTLARSPSIDSIQKDPREFGWRDPELPEVIQMLQHQFPSVQSNAAAYLQHLCFGDNKIKAEIRRQGGIQLLVDLLDHRMTEVHRSACGALRNLVYGKANDDNKIALKNCGGIPALVRLLRKTTDLEIRELVTGVLWNLSSCDALKMPIIQDALAVLTNAVIIPHSGWENSPLQDDRKIQLHSSQVLRNATGCLRNVSSAGEEARRRMRECDGLTDALLYVIQSALGSSEIDSKTVENCVCILRNLSYRLAAETSQGQHMGTDELDGLLCGEANGKDAESSGCWGKKKKKKKSQDQWDGVGPLPDCAEPPKGIQMLWHPSIVKPYLTLLSECSNPDTLEGAAGALQNLAAGSWKWSVYIRAAVRKEKGLPILVELLRIDNDRVVCAVATALRNMALDVRNKELIGKYAMRDLVHRLPGGNNSNNTASKAMSDDTVTAVCCTLHEVITKNMENAKALRDAGGIEKLVGISKSKGDKHSPKVVKAASQVLNSMWQYRDLRSLYKKDGWSQYHFVASSSTIERDRQRPYSSSRTPSISPVRVSPNNRSASAPASPREMISLKERKTDYECTGSNATYHGAKGEHTSRKDAMTAQNTGISTLYRNSYGAPAEDIKHNQVSAQPVPQEPSRKDYETYQPFQNSTRNYDESFFEDQVHHRPPASEYTMHLGLKSTGNYVDFYSAARPYSELNYETSHYPASPDSWV
For B1, the binding result in assay [1] and in assay [2] was “binds” each time.
